Assay [1] has as its target GST-TPL2 (tomato (Solanum lycopersicum)). Put plainly: pull-down; GST fusion protein held on GST MAGIC beads, incubated with His fusion protein for 2.5 h at 4 °C; 50 mM HEPES pH 7.5, 50 mM NaCl, 10 mM EDTA, 0.2% Triton X-100; blot with anti-His and anti-GST; both purified.
Assay [2] deals with BD-GCR1 (GLAND CELL REPRESSOR 1, yeast two-hybrid fusion) (tomato (Solanum lycopersicum)). In words: two-hybrid; Matchmaker GAL4 system; pairwise, pGBKT7 bait and pGADT7 prey co-transformed into yeast AH109; three dilutions on SD/-Ade/-His/-Leu/-Trp for four days.
The target in assay [3] is GCR2 (GLAND CELL REPRESSOR 2, yeast two-hybrid fusion) (tomato (Solanum lycopersicum)) (UniProt K4BE38). The assay is described as above.

Protein sequences, listed by entry. Tags and fused reporters are not part of them. Lines headed by an entry give the natural chain unless they say otherwise; changes in a name come on top.
UniProt K4BE38: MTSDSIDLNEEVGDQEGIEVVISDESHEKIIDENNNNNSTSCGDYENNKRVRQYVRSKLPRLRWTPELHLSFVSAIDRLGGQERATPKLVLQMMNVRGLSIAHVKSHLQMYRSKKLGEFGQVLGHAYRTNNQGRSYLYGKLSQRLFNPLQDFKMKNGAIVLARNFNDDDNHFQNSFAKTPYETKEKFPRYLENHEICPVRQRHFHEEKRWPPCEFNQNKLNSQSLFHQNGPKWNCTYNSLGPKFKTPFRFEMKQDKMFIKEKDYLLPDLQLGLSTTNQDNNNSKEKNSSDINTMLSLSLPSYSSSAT
UniProt A0A3Q7F340: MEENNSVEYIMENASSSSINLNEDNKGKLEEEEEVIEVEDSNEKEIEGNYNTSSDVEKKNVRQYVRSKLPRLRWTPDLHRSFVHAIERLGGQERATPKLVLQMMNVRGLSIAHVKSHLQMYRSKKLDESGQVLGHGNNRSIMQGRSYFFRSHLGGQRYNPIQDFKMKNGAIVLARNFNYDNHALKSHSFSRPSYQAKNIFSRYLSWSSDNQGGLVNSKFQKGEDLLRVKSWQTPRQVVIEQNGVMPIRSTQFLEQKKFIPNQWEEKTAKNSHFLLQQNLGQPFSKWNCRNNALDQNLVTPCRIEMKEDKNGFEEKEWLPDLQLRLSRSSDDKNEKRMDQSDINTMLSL

These are yes or no findings as the source states them, for the method shown. Binding calls can cover weak binding; strength is not graded here.

As to His-GCR1 (from UniProt A0A3Q7F340), the binding entry in assay [1] is on record as “binds”. Regarding His-GCR2 (from UniProt K4BE38), the binding result in assay [1] was “binds”. “SlTPL4 (yeast two-hybrid fusion) (from UniProt A0A3Q7FRL5)”: the binding entry in assay [2] and in assay [3] was “binds weakly” in each case.

These data come from article PMC10943084.
